For at least one compound, name, drawing or mass did not settle the structure.
Tested on: p18
Assay: p18 levels in hippocampal P2 fractions of rapamycin-treated AS mice, Western blot
Type: in vivo, mouse
Conditions: rapamycin treatment of AS mice

SMILES: CO[C@H]1C[C@@H]2CC[C@@H](C)[C@@](O)(O2)C(=O)C(=O)N2CCCC[C@H]2C(=O)O[C@H]([C@H](C)C[C@@H]2CC[C@@H](O)[C@H](OC)C2)CC(=O)[C@H](C)/C=C(\C)[C@@H](O)[C@@H](OC)C(=O)[C@H](C)C[C@H](C)/C=C/C=C/C=C/1C [rapamycin]
- increase in p18 levels in AS mice: did not reverse

Reference: US12209111B2, “Targeting P18 for mTOR-related disorders” (WESTERN UNIVERSITY OF HEALTH SCIENCES, priority 2018, dated 2025)
